Measured values as given in article PMC8964110.
Results are given in words; binding and its absence hold for the method and conditions named. Binding seen in cells or lysates may run through a third protein. A yes stands for co-enrichment or nearness to the bait. Other partners may have been found.

Biological target: EhVps23 (E. histolytica (endogenous in HM1:IMSS trophozoites))
Test: affinity purification with mass spectrometry; immunoprecipitation with α-EhVps23 antibody and protein G-agarose from trophozoite lysates (10 mM Tris-HCl, 50 mM NaCl, protease inhibitors, freeze-thawing; pre-cleared with Protein-G, 2 h at 4°C); precipitate separated by gel electrophoresis, LC-ESI-HDMSE

B1: Adenylate kinase (protein, UniProt O96907 1-193)
chain: MAKVFLIMLGGPGAGKGTQCANIEKHLNSSAHISTGDLLRAEIKNKTEIGLKVEDIIRNGQLVSDEIICNMVNNFIAKNEKEVIVFDGYPRAVSQLEALLKEATAETKICVINLEIPDEILIQRIVSRGKTSGRADDNTEAAAKRLAVYHAQHDEMIKAIKAKNLPYFVVDHLGGPDEVFNEIKGVFANVGLH
- binding: binds

B2: Adenylyl cyclase-associated protein (protein, UniProt C4M295 1-478)
chain: MSTEAELKTLLAQVMNRLETVTARLEKLEGNTTNSTKSSTSNSTCECGDVPKAVQAFKELIEEYLKPQVEAAQGFDEILGKCMNDFLNVAEQVSGLIEVAAKSQKPTQEEFQKMIQPISEKMMAVGEYKDKNFKSPYINYLSAIGEAVPVFGWICVEKTPAPYVADLIPGSEFYTNKVLVATKGKEQNKYDWALNFIKFLKEMVVYIKQYHTTGLTWNPKGGVASAQAAPVAPKVETPKEEPKPVVKQQQPNPAGLFAELNKGTAISGGLKHVTADMKTKNMKPEDKVPLEPKKVTTNTPKPATAKSVVQKPPKIEKNLNKWDISYHNGNKNIEIDGTFQDSIYIFKCENSAVKVNGKINCISVDGCKKLTLICDTIVSYVEVINCNSIDIRVIELTPTVNIDKSQSVNVHLSEKALDGNTTVNTSKCDAVNISFPNPEDKEDEVEYPIPEQIYTIVKENKLYPQIYFHDKSSYYFPK
- binding: binds

B3: Thioredoxin domain-containing protein (protein, UniProt C4M3Q0 1-233)
chain: MSCNQQKECCKKECQEKECCKECCCPRIKAFKKFINTFEKAQIGKEAPEFKAPAYCPCGSIKEIDINEYRGKYVVLLFYPLDWTFVCPTEMIGYSELAGQLKEIDCEVIGVSVDSVYCHQAWCEADKSKGGVGKLTFPLVSDIKRCISIKYGMLNVEAGIARRGYVIIDDKGKVRYIQMNDDGIGRSTEETIRIVKAIQFSDEHGAVCPLNWKPGKDTIEPTPDGIKKYLTAH
- binding: binds

B4: Uncharacterized protein (EHI_161070) (protein, UniProt C4M2S3 1-211)
chain: MSATIEELKTCSNQQEFEAAGEAAKKWFTEVLSNGWTETTKGEVTIYDKPSVNNHHFIKTVTQSKLKAEDIFNKVKSADFATSHKYDKELVESEVLETINEHLKVTKQVNSAPWPVAAREFVSVLIDYEENGSFYIVSTSINYPKCDTVGKKYVRGVKLFGMKFTPNDEGCLIERVLEVDPRGSVIAMAVNASKKEDANRLLNMKKFFEQN
- binding: binds

B5: Profilin (protein, UniProt P49230 1-130)
chain: MSWQSYVDSFLVGAGKGMGGAIIGLQGGVWAASANCTPSAQESVAIGTACASNIAGLQQTGVVIGGKKYMITRVDADEGTAMGKKGAEGISIYKTKQAVIIGYFSDASVSAGQNSDATYKCAKYLMDAGY
- binding: binds

B6: Acetyl-CoA synthetase (protein, UniProt C4LUV9 1-713)
chain: MQFEPLFNPKSVAVIGASDRKESVGYAVMNNMIKGGYKGNLYPVGRKPELFGKKCYAKIGQIEEKVDLAVIAIPAKFVPGVCIECGEAGVKGLIIITAGFAEAGEEGKKMCIEIQATCQKYNMRMIGPNCLGIINPRDGVNASFASVMPEAGGVAFISQSGALCTAILDWAANQHVGFSYFVSIGSSIDTDYADLFEFFAKDPKVTSILMYIESIKDAKKFVLRAREFAADKPIILLKAGKSSEGAAAAMSHTGSLAGNDAVYDAVFDRCGCIRVDSICDLWDCAHVLATQNIPQNNRLCIITNAGGPGVISTDRLVSVHGHLAKLSESTMNELNAFLSPFWSHSNPVDVLGDATAGVYQKTLDIVIKDPQIDGVVVVLTPQAMTDPVAVAKSLVEHGPYQKPVLASWMGQSEVEAGVKILEEGKIPNFETPERAVTAFGYIMRHPDIAAKLKEIPKYLDVQVDYEGAKKLIADVVADGRTTFTEYEGKMMFSKYGIPIKGMAKASTEDEAVAEAMKIGTPVVMKILSPDIMHKTDVGGVKVKLTTEEEIRKAYRDIMTSVKEKKPEARIHGVLLEKMVGFKYECIIGCKKDPLFGPVIVFGMGGVTVELYKDTNIALPPIGLQEADRLIDGTKISKLLRGYRGMPACDVEGLKKILVQFSKMIMDFPEISEVDINPLAVSYEEFLVLDAKIVLDKNMIGKEVPKYSHLVIQP
- binding: binds

B7: Phosphoglycerate kinase (protein, UniProt C4M192 1-415)
chain: MGFTKKSLDQIDVKDKRVFMRVDFNVPMEKGKITNTKRIDATIPSIQYCLDHGCKAVVLASHLGRPDGHVVPELTLKPVAEKLEEILKHKVIFLNDCVGEEVIKACANPAPGSVILLENVRFHPEEEGSSIVDGKKVKADPEKVKEFREQLTKLGDVYVNDAFGTVHRAHSTMVGVNLSPKVSGFLVKKELGYFAKAFDHINRPYLGILGGAKVADKIPIINNFLEKVDQLIICGGMAYTFLAASKNMKIGKSLFDASKVEMCKELLAKAEAKKVEILLPFDFVACDKFGEDANTQICTLEEGIPEGWEGVDCGPKTSALWREKILAAKTIMWNGPCGVFEIDKFSAGTKALCEAVAAATQAGVLTIVGGGDTPTALKKFGLDKQVSHISTGGGASLELLQGLPLPGVANLDDAE
- binding: binds

B8: ADF-H domain-containing protein (protein, UniProt C4LVG4 1-138)
chain: MAGIQLADEVTSVYNDFKLSHKYRYIVFKMNDGMTEVVVEKTAEKNATYDDFLKDLPEKSARYAVYDLEYDTPEGLRQKIIFYLWTPEGCKIREKMLYSATKATIKQALVGLSAEIQATDAGELNLDEVIAKVKTISK
- binding: binds

B9: Fe-ADH domain-containing protein (protein, UniProt Q24857 1-384)
chain: MTMLNFTYYNPVRLIYGKGSLDEIEKQHLIPEDARIMMTYGGGSIKKNGVYEEVLKHIKPIVEFGGIEPNPSHETCIKAIKIAKENKINFLVAVGGGSIIDATKYIALGMEHTYSDDPYDICLKGGKFKVNPAQAKIGVVLTIPATGSETNCWGVISRHADKLKLPFNNESVFPTWSIVDPCFTMSLPDNQIRNGLVDSFVHCIEQYIGNYHLNPVVEAETEGVMRTIIGVSHKTLENHQDYQARITFCYAATVALNMSLLCGVTLCGGAHAVGHELTSYYGLAHGETLAITTPGVMRFNKEKNAKKLIQMGEQVFGIKNSTPEAAIEATEKWFKSIGMKTRLSEWGKGKEEFETIARKFEGNPAGAHKDIDYKGCLQILNDIY
- binding: binds

B10: EhRabC3 (protein, UniProt A0A8U0WP91 1-208)
chain: MSRGNYDHLFKILIIGESGVGKTAIMQRFCENTFEPVYISTVGVDFKPKVIKVGNKTVKMQLWDTAGQDRFRNITASYYRGTQGVLIVYDVTDRASFDKVSSWFTEVRDRTENDPPVIILVGNKTDLMDHAAVKQEAVEQLARQLGGVQTFTCSAKDGSGIDEVFNALTQAIISKVGCAPGKKEDPSVVQLGGKGGSQPAQKSEGGCC
- binding: binds
